From PubChem BioAssay AID2278 (National Center for Advancing Translational Sciences (NCATS), 2010)
Inconclusive means that the source gave no clear call. Such entries were picked first, then a sample of the others. Where the call is inconclusive, the potency comes from a doubtful curve fit. Calls of active or inactive are those of the source. Calls come from the whole dose curve; as a rule, active = well fitted curve in the direction sought with a large enough effect; inconclusive = small, poorly fitted or top-dose-only effect, or another doubt; inactive = no such curve, though single readings can be large or run the other way.

Chains of the proteins cited; added tags and fusions are not shown. Lines headed by an entry give the natural chain unless they say otherwise; changes in a name come on top.
UniProt Q9QXX3: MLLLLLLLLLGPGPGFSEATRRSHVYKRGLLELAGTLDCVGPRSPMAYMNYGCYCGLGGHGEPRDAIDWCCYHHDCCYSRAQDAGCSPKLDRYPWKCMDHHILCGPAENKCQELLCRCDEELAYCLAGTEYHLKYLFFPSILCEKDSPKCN

Biological target: Group 10 secretory phospholipase A2 (Mus musculus) (UniProt Q9QXX3)
Test: Secondary Assay for Inhibitors of Ubiquitin-specific Protease USP2a: PLA2 Counterscreen
Conditions: purified murine PLA2, NBD C6-HPC fluorescence; activity change, negative = inhibition: at 57.5 µM (top of the series)
Description: NIH Molecular Libraries Screening Centers Network [MLSCN] NIH Chemical Genomics Center [NCGC] MLSCN Grant: XO1-MH079852-01 PI Name: Nicholson, Ben. Progenra Inc, Malvern, PA NCGC Assay Overview: Homeostasis of cellular proteins is maintained through a combination of synthesis and degradation. The pathway that accounts for the majority of protein degradation is the ubiquitin-proteasomal pathway. Ubiquitin (Ub) is highly conserved in all cells and the generation of a multi-Ub chain typically targets proteins for degradation by the proteasome. However, ubiquitination is highly reversible and dynamic. Deubiquitination, the reverse process, is catalyzed through the action of enzymes referred to as isopeptidases or deubiquitinating enzymes (DUBs). This group of enzymes is collectively responsible for maintaining adequate pools of free ubiquitin and regulating the ubiquitination status of cellular proteins. The class of DUBs referred to as the ubiquitin-specific proteases (USP) family functions endoproteolytically to cleave Ub chains from a wide range of protein substrates. USP2a deubiquitinates fatty acid synthase (FASN) which has recently been identified as an emerging oncology target. To identify inhibitors of USP2a a cell-free assay was employed. This is assay is a counterscreen used for the for the USP2a-PLA2 coupled assay. In this assay the murine PLA2 reporter enzyme is screened alone using NBD C6-HPC (Invitrogen) as a fluorogenic substrate.
NCGC Assay Protocol Summary: The assay buffer, prepared fresh at the day of the assay, contains 20mM Tris-HCl pH 8.0, 2mM CaCl2, 2mM beta-mercaptoethanol, 0.1% DMSO. 3ul of 10nM (5nM final) free PLA2, which is stored on ice, is dispensed into a medium-binding black solid Kalypsys 1,536 well plate using the Aurora BioRaptr. The assay plate is then pinned with 23nL compound with the Kalypsys pintool. The controls were pinned as follows: row 31 2M NEM and row 32 DMSO. Subsequently, 3uL 40uM (20uM final) NBD C6-HPC (stored on ice and protected from light) were dispensed into the plate using the BioRaptr dispenser. Plates were read immediately on an Envision (Perkin Elmer) plate reader using wavelengths of Ex 460nm /Em 535nm. Then, the assay plates were incubated for 2.5 hours and read again on the Envision using the same settings. Data were normalized to the to AC100 inhibition (NEM). Concentration-response curves were fitted to the normalized data and the concentration-response curves were then classified based on curve quality (r2), response magnitude and degree of measured activity. The time zero reading was used to flag fluorescence artifacts. Keywords: ubiquitination, deubiquitination, proteases, profluorescent, MLSMR, MLSCN, NIH Roadmap, qHTS, NCGC

SMILES	Potency	activity change, negative = inhibition
CS(=O)(=O)c1ncc(Cl)c(C(=O)N2CCN(c3cccc(Cl)c3)CC2)n1	inconclusive: 15.8 µM [falling, full curve, poor fit]	
CCS(=O)(=O)c1nc(S(=O)(=O)c2ccc(C)cc2)c(NCC(C)C)s1	inconclusive: 11.2 µM [falling, full curve, poor fit]	
O=C(CCS(=O)(=O)c1ccccc1)N(Cc1cccnc1)c1nc2c(Cl)cccc2s1	inactive	
O=C(CSc1nc(=O)n(Cc2ccccn2)c2c1CCC2)Nc1ccccc1	inactive	
Cc1cc(C)cc(NC(=O)c2sc3nc4n(c(=O)c3c2C)N=C(c2ccccc2)CS4)c1	active: 20 µM	
Cc1nn(C(=O)c2cccc([N+](=O)[O-])c2C)c(C)c1S(=O)(=O)N1CCCCCC1	inactive	
COc1ccc(/C=C(\C#N)c2nc(-c3cc4c(ccc5ccccc54)oc3=O)cs2)cc1O		inconclusive: -1.58%
COc1ccc(C2C=C(c3ccc(Br)cc3)Nc3nnnn32)c(OC)c1 (stereo unspecified)	inactive	
CC1=C(C(=O)Nc2ccccc2C)C(c2ccc[nH]2)n2ncnc2N1 (stereo unspecified)		inconclusive: -5.54%
COc1ccc(S(=O)(=O)N2CCN(c3ccccc3F)CC2)cc1-c1noc(C)n1	inconclusive: 31.6 µM [falling, partial curve, poor fit]	
COc1ccc(C(=O)NC(c2ccccc2Cl)c2cc(Cl)c3cccnc3c2O)cc1 (stereo unspecified)	inconclusive: 3.16 µM [falling, full curve]	
COc1ccc(OC)c(NCc2cccn2-c2nnc(N3CCC(C)CC3)s2)c1	inconclusive: 14.1 µM [falling, full curve, poor fit]	
Cc1ccc(C(=O)OC2=C(C(=O)c3ccccc3)N(C)S(=O)(=O)c3ccccc32)cc1	inconclusive: 15.8 µM [falling, full curve, poor fit]	
Cc1ccc(S(=O)(=O)Cc2nc(-c3ccc(C(=O)NCc4ccccc4F)cc3)oc2C)cc1	inconclusive: 12.6 µM [rising, full curve]	
CCOC(=O)c1cc(OC(=O)c2ccccc2Cl)n(-c2ccccc2)n1	inconclusive: 22.4 µM [falling, partial curve, poor fit]	
Cc1nnc(SCC(=O)NCc2ccccc2F)c2nn(-c3ccc(Cl)cc3)c(C)c12	inactive	

Ordered by formula weight (smallest number first): part of the list above.
SMILES	Potency	activity change, negative = inhibition
CCOC(=O)c1cc(OC(=O)c2ccccc2Cl)n(-c2ccccc2)n1	inconclusive: 22.4 µM [falling, partial curve, poor fit]	
COc1ccc(OC)c(NCc2cccn2-c2nnc(N3CCC(C)CC3)s2)c1	inconclusive: 14.1 µM [falling, full curve, poor fit]	
Cc1ccc(C(=O)OC2=C(C(=O)c3ccccc3)N(C)S(=O)(=O)c3ccccc32)cc1	inconclusive: 15.8 µM [falling, full curve, poor fit]	
